{"source": "patent US12349704B2", "about": "“High quality cultured meat, compositions and methods for producing same” (ALEPH FARMS LTD., priority 2018, dated 2025)", "origin": "cited, not measured here", "details": "crystalline powder"}
{"smiles": "COC1=C(OC)C(=O)C(C/C=C(\\C)CC/C=C(\\C)CC/C=C(\\C)CC/C=C(\\C)CC/C=C(\\C)CC/C=C(\\C)CC/C=C(\\C)CC/C=C(\\C)CC/C=C(\\C)CCC=C(C)C)=C(C)C1=O", "note": "[CoQ10, Coenzyme Q10]", "values": [{"measurement": "solubility in water", "value": "insoluble in water"}]}
